Paper doi:10.1101/2022.11.02.514072
Results are given in words; binding and its absence hold for the method and conditions named. Binding seen in cells or lysates may run through a third protein. Some entries that bind do so weakly or less than the wild type. Where a sequence is shown, tags or fusion partners need not be part of it.

Amino acid sequences for entries named in this document (tags omitted).
UniProt Q7Z6Z7: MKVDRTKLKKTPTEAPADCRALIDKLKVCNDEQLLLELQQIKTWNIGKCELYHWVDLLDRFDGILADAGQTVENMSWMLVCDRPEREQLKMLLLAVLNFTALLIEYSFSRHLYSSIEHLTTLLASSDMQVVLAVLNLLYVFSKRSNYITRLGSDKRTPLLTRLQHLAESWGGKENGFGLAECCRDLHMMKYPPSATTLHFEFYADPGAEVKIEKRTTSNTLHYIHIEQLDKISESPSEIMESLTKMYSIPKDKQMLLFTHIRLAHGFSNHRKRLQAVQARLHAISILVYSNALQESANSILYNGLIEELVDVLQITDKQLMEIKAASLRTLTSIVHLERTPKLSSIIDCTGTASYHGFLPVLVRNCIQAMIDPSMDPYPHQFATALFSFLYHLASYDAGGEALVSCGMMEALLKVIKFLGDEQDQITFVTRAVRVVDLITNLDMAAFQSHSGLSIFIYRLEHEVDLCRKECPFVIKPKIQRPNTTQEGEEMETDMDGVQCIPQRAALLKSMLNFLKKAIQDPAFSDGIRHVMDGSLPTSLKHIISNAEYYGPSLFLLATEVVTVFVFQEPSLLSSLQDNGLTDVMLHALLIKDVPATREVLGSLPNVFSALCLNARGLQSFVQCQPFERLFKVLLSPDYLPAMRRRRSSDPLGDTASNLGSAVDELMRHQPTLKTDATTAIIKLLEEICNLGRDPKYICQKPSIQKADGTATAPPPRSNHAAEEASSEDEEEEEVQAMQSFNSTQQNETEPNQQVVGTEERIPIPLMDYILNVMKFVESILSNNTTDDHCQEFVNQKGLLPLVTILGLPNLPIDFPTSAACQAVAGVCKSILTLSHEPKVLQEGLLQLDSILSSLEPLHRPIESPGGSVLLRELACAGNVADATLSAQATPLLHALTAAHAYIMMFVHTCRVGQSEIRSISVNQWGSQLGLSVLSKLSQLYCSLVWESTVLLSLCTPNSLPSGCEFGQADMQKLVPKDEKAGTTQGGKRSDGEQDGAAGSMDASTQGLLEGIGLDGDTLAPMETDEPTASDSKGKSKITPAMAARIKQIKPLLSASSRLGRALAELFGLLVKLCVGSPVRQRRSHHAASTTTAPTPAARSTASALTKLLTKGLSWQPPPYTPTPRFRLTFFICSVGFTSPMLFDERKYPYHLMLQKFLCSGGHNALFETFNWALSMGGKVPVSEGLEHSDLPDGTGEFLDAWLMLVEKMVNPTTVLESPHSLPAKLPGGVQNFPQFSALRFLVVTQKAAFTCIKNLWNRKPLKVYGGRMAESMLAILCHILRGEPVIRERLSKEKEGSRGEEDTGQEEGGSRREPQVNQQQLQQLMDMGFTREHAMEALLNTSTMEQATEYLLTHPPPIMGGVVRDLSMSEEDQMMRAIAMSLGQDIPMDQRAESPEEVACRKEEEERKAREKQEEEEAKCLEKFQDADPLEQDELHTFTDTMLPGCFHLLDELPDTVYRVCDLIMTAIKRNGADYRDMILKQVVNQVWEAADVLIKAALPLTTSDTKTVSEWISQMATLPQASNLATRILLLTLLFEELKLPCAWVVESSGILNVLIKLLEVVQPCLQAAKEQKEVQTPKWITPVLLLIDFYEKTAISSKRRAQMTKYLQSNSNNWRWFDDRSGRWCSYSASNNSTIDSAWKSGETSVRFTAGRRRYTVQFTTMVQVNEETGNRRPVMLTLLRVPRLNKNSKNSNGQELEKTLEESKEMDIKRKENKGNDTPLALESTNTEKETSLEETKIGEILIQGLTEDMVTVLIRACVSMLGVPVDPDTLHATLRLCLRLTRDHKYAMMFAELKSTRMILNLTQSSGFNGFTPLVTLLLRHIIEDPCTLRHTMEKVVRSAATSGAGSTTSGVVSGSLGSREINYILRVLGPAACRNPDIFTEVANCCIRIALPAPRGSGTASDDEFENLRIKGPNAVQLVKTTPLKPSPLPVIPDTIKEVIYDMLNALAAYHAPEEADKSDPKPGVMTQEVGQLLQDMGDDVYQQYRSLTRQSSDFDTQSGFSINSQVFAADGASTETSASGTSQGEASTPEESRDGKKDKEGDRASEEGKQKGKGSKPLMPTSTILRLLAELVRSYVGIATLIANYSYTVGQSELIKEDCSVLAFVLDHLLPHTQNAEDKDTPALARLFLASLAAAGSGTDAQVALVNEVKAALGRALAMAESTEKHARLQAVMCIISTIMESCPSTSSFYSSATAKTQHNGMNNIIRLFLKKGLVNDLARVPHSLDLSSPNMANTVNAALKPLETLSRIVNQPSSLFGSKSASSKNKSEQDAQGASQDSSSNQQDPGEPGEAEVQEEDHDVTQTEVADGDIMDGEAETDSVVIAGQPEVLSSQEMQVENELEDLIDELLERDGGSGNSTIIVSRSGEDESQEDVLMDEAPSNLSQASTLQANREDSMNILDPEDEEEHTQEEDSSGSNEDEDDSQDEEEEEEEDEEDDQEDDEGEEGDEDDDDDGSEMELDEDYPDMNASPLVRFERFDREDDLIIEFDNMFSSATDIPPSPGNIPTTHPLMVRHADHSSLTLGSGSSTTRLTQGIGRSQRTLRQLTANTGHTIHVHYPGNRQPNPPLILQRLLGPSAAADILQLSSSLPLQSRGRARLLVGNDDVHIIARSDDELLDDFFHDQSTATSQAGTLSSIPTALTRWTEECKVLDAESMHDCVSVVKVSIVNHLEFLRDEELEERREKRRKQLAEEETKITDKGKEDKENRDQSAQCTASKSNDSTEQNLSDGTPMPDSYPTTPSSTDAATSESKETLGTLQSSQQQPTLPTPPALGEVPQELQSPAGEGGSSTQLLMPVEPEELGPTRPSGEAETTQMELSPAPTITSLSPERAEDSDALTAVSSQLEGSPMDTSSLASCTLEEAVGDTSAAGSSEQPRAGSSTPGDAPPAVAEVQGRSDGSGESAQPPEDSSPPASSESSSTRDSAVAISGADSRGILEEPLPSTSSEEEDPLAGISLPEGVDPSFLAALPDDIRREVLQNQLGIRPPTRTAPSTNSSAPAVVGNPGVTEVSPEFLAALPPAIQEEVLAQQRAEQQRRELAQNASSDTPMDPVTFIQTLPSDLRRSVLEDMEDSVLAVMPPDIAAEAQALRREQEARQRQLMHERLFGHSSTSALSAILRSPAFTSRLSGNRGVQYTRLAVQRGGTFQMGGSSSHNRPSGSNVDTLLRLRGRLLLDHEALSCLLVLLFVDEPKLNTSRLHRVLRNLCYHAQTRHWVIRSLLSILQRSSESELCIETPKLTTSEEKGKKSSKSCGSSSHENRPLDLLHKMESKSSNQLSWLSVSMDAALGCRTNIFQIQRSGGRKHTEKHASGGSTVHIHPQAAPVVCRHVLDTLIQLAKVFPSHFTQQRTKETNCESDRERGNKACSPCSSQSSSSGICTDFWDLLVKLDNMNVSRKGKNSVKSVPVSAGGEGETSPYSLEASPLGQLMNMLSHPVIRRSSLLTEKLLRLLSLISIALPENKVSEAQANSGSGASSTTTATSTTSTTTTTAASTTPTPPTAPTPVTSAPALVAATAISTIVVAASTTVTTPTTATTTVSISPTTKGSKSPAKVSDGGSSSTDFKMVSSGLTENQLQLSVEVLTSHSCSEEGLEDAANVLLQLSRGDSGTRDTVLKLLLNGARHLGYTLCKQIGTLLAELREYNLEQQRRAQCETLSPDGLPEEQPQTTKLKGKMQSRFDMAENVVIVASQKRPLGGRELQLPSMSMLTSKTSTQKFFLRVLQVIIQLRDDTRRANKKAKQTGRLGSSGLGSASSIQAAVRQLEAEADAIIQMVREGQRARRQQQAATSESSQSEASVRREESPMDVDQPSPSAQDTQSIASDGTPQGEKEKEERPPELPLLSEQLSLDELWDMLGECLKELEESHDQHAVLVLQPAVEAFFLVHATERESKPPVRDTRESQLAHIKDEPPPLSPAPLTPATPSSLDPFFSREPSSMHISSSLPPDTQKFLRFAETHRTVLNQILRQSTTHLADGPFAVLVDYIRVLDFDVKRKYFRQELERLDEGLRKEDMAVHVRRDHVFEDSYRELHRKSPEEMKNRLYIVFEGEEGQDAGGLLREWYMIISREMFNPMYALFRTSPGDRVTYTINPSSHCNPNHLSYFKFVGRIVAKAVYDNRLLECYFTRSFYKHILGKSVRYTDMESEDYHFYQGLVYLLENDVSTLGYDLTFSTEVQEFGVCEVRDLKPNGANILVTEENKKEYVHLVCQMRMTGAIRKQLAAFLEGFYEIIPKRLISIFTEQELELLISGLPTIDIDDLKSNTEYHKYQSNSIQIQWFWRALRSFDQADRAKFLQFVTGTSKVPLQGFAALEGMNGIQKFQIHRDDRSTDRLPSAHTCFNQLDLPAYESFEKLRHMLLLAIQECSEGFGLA

What was measured:
[1] = target: Flag-HUWE1 WT (Wild-Type) (UniProt Q7Z6Z7); test: co-IP
SFB-RNF8 = target: T1, SFB-RNF8 (UniProt O76064); test: co-IP
T1 sequence: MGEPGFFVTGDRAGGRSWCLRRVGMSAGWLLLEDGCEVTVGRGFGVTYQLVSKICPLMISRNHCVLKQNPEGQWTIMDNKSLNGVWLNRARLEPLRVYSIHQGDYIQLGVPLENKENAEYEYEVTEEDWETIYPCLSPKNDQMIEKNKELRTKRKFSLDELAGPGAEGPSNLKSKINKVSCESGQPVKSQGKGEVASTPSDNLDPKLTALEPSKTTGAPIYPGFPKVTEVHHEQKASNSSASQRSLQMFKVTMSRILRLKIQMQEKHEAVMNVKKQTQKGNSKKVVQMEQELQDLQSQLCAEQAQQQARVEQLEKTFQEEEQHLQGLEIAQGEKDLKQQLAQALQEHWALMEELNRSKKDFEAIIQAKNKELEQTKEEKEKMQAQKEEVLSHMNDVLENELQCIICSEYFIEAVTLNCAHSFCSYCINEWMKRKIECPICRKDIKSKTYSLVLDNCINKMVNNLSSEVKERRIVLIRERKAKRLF

B1: ASCL1-Myc (protein, UniProt P50553 1-236)
chain: MESSAKMESGGAGQQPQPQPQQPFLPPAACFFATAAAAAAAAAAAAAQSAQQQQQQQQQQQQAPQLRPAADGQPSGGGHKSAPKQVKRQRSSSPELMRCKRRLNFSGFGYSLPQQQPAAVARRNERERNRVKLVNLGFATLREHVPNGAANKKMSKVETLRSAVEYIRALQQLLDEHDAVSAAFQAGVLSPTISPNYSNDLNSMAGSPVSSYSSDEGSYDPLSPEEQELLDFTNWF
For B1, the binding [1] was “binds”.

B2: Myc-KDM4A (enzyme, UniProt O75164 1-1064)
chain: MASESETLNPSARIMTFYPTMEEFRNFSRYIAYIESQGAHRAGLAKVVPPKEWKPRASYDDIDDLVIPAPIQQLVTGQSGLFTQYNIQKKAMTVREFRKIANSDKYCTPRYSEFEELERKYWKNLTFNPPIYGADVNGTLYEKHVDEWNIGRLRTILDLVEKESGITIEGVNTPYLYFGMWKTSFAWHTEDMDLYSINYLHFGEPKSWYSVPPEHGKRLERLAKGFFPGSAQSCEAFLRHKMTLISPLMLKKYGIPFDKVTQEAGEFMITFPYGYHAGFNHGFNCAESTNFATRRWIEYGKQAVLCSCRKDMVKISMDVFVRKFQPERYKLWKAGKDNTVIDHTLPTPEAAEFLKESELPPRAGNEEECPEEDMEGVEDGEEGDLKTSLAKHRIGTKRHRVCLEIPQEVSQSELFPKEDLSSEQYEMTECPAALAPVRPTHSSVRQVEDGLTFPDYSDSTEVKFEELKNVKLEEEDEEEEQAAAALDLSVNPASVGGRLVFSGSKKKSSSSLGSGSSRDSISSDSETSEPLSCRAQGQTGVLTVHSYAKGDGRVTVGEPCTRKKGSAARSFSERELAEVADEYMFSLEENKKSKGRRQPLSKLPRHHPLVLQECVSDDETSEQLTPEEEAEETEAWAKPLSQLWQNRPPNFEAEKEFNETMAQQAPHCAVCMIFQTYHQVEFGGFNQNCGNASDLAPQKQRTKPLIPEMCFTSTGCSTDINLSTPYLEEDGTSILVSCKKCSVRVHASCYGVPPAKASEDWMCSRCSANALEEDCCLCSLRGGALQRANDDRWVHVSCAVAILEARFVNIAERSPVDVSKIPLPRFKLKCIFCKKRRKRTAGCCVQCSHGRCPTAFHVSCAQAAGVMMQPDDWPFVVFITCFRHKIPNLERAKGALQSITAGQKVISKHKNGRFYQCEVVRLTTETFYEVNFDDGSFSDNLYPEDIVSQDCLQFGPPAEGEVVQVRWTDGQVYGAKFVASHPIQMYQVEFEDGSQLVVKRDDVYTLDEELPKRVKSRLSVASDMRFNEIFTEKEVKQEKKRQRVINSRYREDYIEPALYRAIME
With B2 the binding (SFB-RNF8) was “binds”.
